Test results reported in paper PMC10654321.
For at least one entry, the source does not settle the construct or the ends of the probe.

The sequences below were run on ZmRL6 (1R-MYB, MYB-related) (Zea mays) (assay: EMSA). Settings: unlabeled competitor reduced binding; EMSA: 20 ng protein, 5 ng biotin probe in 20 µl; 10 mM Tris pH 7.5, 50 mM KCl, 1 mM DTT, 2.5% glycerol, 5 mM MgCl2, 0.05 mg/ml poly(dI-dC), 0.05% NP-40; 25 °C, 20 min; protein translated in vitro; protein details: HaloTag (pFN19K, N-terminal, HaloTag-ZmRL6); label: biotin.

Binding result, binds:
CGTTACCAAACTACCTAATTCCTTACCAAAC (double strand) [TTACCAAAC probe]
TGCAACGGTCTTCACCAACCCAACGGTCCA (double strand) [AACGGT (ACCGTT) probe]
TTCGACAGCCCGAGAATCAG (double strand) [AGCCCGAG probe]
